From the supplement of paper PMC10849652
The list shows a part of the results.

Amino acid sequences for entries named in this document (tags omitted). A change or cut given only in a name is not applied to a line headed by its entry.
UniProt Q9Y294, whole entry, looked up: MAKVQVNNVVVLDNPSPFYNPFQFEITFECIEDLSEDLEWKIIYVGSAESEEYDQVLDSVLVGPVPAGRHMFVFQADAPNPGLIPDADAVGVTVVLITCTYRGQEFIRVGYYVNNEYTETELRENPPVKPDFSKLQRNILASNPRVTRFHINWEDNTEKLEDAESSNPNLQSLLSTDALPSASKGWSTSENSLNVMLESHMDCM
UniProt Q9UII2: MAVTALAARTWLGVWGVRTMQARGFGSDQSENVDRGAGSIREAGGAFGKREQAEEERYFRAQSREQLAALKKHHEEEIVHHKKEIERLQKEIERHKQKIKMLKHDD
UniProt P54709, whole entry, looked up: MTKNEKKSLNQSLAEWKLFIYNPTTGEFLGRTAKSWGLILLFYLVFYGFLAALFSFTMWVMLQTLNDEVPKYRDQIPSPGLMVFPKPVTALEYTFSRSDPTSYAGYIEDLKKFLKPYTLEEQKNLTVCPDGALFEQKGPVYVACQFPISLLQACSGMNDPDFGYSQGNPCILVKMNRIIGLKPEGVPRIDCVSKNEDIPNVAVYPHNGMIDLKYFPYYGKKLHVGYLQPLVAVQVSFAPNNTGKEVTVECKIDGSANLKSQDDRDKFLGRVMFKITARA
UniProt Q9Y4P1: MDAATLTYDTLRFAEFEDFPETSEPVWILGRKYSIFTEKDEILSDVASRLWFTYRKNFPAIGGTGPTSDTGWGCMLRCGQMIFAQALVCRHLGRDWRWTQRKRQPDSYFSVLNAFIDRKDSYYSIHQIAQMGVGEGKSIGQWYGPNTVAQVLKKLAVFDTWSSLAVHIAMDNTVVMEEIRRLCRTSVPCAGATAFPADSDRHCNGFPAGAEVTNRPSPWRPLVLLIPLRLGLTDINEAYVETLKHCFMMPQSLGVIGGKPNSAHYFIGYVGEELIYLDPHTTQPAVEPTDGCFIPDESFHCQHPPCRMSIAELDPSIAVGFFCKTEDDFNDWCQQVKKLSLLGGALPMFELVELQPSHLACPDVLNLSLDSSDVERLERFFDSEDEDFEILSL
UniProt L0R819, whole entry, looked up: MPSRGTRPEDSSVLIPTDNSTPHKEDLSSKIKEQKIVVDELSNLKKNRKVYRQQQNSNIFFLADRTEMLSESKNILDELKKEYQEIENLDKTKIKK
UniProt Q96IX5: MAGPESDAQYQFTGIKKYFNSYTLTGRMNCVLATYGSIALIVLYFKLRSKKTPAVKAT
UniProt P98194: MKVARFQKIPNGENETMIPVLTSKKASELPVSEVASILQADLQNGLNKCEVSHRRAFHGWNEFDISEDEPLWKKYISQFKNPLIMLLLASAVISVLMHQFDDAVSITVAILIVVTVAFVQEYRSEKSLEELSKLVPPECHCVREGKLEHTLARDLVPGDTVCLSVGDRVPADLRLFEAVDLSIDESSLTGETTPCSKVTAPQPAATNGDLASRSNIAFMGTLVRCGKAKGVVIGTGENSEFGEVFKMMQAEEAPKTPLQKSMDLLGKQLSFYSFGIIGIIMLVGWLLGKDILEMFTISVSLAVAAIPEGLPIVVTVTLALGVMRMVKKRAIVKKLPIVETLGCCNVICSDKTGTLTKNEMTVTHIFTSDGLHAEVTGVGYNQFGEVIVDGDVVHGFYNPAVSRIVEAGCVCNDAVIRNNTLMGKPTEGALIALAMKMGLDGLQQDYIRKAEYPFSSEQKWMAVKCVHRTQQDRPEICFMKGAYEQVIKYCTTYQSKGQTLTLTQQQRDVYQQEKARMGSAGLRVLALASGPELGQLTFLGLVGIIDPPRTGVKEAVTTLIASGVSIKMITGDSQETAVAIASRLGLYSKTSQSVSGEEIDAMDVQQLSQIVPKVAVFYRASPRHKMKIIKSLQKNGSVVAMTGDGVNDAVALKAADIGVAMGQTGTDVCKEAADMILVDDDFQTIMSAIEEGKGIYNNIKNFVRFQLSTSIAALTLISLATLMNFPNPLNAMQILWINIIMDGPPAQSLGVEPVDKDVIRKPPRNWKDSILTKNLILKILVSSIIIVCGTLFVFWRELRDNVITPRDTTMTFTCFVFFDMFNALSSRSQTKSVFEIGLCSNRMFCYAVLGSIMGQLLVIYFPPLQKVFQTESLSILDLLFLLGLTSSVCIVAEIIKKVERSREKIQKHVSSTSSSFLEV
UniProt O75964: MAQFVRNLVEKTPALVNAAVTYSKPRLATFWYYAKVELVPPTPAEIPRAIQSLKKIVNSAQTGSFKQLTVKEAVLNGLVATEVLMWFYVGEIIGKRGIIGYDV
UniProt Q9NT62, whole entry, looked up: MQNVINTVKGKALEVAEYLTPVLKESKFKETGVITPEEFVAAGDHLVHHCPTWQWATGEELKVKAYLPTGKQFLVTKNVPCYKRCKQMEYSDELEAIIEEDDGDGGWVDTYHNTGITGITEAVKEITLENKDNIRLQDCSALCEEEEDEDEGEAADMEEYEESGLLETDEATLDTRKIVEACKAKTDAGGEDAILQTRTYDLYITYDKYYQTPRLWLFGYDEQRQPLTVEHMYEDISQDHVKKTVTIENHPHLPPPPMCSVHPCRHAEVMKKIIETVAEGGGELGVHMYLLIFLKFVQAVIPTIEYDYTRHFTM
UniProt Q9NVI7: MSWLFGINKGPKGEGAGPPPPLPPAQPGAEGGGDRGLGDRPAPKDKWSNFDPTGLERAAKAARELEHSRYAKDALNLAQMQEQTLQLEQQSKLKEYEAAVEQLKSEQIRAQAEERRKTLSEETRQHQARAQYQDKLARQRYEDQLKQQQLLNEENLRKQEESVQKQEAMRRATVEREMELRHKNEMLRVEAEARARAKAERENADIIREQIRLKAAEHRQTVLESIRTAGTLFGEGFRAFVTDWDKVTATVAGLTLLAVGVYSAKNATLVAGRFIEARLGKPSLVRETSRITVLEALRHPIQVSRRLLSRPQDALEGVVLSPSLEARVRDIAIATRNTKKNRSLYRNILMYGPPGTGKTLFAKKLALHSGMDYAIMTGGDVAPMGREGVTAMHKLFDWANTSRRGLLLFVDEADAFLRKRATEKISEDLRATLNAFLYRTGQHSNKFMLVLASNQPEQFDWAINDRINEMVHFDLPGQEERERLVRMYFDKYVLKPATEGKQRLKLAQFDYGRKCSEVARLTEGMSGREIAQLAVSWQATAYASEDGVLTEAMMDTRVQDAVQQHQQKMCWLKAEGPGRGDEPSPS
UniProt Q9Y5K8, whole entry, looked up: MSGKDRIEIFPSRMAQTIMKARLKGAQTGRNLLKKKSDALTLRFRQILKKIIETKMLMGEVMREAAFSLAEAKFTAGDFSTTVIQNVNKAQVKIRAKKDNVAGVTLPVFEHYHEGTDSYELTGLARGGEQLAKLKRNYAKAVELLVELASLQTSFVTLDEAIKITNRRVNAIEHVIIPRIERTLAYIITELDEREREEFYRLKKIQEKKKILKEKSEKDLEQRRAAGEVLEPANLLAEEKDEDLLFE
UniProt Q8N9N2: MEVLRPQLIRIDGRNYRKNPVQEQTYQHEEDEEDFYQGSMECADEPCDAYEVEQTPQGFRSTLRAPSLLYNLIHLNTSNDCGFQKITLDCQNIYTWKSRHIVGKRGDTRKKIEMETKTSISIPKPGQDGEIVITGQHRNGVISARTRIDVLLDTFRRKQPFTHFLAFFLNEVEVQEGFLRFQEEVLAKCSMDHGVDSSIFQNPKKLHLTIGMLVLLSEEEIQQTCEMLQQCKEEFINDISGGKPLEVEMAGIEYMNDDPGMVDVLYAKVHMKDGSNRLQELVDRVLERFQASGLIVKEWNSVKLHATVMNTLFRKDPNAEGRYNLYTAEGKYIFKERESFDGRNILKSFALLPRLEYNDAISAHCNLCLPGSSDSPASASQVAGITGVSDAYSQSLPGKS
UniProt O14965: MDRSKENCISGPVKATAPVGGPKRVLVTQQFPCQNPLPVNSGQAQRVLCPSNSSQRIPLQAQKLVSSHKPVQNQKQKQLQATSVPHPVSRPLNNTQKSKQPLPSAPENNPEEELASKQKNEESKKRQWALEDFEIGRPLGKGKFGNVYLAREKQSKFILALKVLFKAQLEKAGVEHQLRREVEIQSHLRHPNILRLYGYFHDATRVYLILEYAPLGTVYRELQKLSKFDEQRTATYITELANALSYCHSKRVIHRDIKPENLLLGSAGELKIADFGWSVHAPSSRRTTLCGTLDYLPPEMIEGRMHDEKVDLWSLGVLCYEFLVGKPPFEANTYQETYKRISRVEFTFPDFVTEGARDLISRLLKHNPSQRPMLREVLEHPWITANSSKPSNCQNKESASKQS
UniProt Q9H1Y0: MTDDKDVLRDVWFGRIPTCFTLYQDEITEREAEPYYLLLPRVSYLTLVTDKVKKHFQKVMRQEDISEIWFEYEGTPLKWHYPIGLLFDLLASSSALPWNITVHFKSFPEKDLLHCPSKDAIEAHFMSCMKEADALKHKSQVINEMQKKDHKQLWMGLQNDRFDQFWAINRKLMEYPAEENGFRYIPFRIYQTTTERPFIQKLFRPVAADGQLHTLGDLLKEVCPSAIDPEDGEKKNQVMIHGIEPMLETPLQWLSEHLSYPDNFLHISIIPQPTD
UniProt P20020: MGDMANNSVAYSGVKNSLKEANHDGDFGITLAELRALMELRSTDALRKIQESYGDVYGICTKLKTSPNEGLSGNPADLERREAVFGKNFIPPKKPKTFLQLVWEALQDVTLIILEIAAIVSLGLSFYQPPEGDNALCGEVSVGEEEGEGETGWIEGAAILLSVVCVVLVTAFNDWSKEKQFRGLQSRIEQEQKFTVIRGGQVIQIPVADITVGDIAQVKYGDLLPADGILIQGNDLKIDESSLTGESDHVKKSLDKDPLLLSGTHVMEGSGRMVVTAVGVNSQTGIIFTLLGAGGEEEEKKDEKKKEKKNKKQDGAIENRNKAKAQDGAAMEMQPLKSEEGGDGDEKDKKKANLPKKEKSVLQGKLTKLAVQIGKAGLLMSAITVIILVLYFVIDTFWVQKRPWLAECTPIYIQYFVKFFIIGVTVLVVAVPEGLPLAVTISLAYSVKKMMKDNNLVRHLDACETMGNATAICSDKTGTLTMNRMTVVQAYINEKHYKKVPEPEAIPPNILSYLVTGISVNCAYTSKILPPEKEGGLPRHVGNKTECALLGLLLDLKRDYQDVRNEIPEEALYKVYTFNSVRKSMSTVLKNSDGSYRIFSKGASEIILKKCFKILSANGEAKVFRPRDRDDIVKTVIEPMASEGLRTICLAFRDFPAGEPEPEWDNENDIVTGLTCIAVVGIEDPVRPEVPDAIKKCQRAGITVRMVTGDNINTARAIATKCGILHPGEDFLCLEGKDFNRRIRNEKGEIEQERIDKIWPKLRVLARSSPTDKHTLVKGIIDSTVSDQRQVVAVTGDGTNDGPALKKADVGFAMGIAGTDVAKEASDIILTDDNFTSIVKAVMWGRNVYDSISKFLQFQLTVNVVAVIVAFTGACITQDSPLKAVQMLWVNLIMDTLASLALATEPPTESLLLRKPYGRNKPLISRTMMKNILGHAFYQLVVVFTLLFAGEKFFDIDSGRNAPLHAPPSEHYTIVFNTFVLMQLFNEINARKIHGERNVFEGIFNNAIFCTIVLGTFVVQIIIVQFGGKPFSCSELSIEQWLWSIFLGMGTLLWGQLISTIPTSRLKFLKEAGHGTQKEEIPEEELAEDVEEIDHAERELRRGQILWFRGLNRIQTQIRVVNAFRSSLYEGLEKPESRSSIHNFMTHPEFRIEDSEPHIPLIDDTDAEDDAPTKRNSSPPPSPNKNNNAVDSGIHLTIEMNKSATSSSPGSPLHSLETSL

Experiments:
Experiment in all cases: log2 fold change, soluble protein after heating vs DMSO (PISA); higher = thermal stabilisation; K562 lysate, 10 uM; active = over 0.2 and 3.5 SD of the protein, either way, in both replicates (recomputed)
erlotinib = compound: C#Cc1cccc(Nc2ncnc3cc(OCCOC)c(OCCOC)cc23)c1 [erlotinib]
Outline: (§1)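 Soluble protein was defined as the supernatant remaining after 21,000xg for 90 min, following pooling of heated aliquots and adjustment to 0.5% NP-40 at 4°C. Before that, crude K562 extract at 1 mg/mL protein in PBS pH 7.4 with 1 mM MgCl2 was treated with 10 μM compound for 30 min and heated for 3 min across 48°C-58°C. Quantification used TMTpro 16plex LC-MS/MS with channel sums equalised, and values are log-two fold changes in thermal stability relative to solvent controls from duplicates.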

[1] = compound: C/C(=N\NC(=O)C1=CC(=CC=C1)S(=O)(=O)N2CCOCC2)/C3=C(C=CC(=C3)Cl)O
Outline: as §1

[2] = compound: C1=CC(=CC=C1C2=NC3=C(N2)C=C(C=C3)C(=O)N)OC4=CC=C(C=C4)Cl
Outline: as §1

[3] = compound: C1=CC2=C(C=CC(=C2)/C=C\3/C(=O)NC(=NCC4=CC=CS4)S3)N=C1
Outline: as §1

[4] = compound: C1=CC2=NC=CN=C2C=C1/C=C/3\C(=O)NC(=O)S3
Outline: as §1

[5] = compound: C1=CC=C(C=C1)C2=NC(=C(N2)C3=CC=NC=C3)C4=CC(=C(C=C4)Cl)O
Outline: as §1

[6] = compound: C1=CC=C2C(=C1)C3=NNC4=CC=CC(=C43)C2=O
Outline: as §1

[7] = compound: C1CCN(C1)C(=O)NC2=CC=CC(=C2)NC3=NC=C(C(=N3)NCCC4=CN=CN4)Br
Outline: as §1

[8] = compound: C1CN(CCC1(CC2=CC=C(C=C2)Cl)N)C3=NC=NC4=C3C=CN4
Outline: as §1

IRAK-1-4 Inhibitor I = compound: C1COCCN1CCN2C3=CC=CC=C3N=C2NC(=O)C4=CC(=CC=C4)[N+](=O)[O-] [IRAK-1-4 Inhibitor I]
Outline: as §1

ibrutinib = compound: C=CC(=O)N1CCC[C@@H](n2nc(-c3ccc(Oc4ccccc4)cc3)c3c(N)ncnc32)C1 [ibrutinib]
Outline: as §1

[9] = compound: CC(=O)c1cnc2ccc(-c3cc(Cl)c(O)c(Cl)c3)nc2c1N[C@H]1CC[C@H](CN(C)C)CC1
Outline: as §1

ralimetinib = compound: CC(C)(C)Cn1c(N)nc2ccc(-c3[nH]c(C(C)(C)C)nc3-c3ccc(F)cc3)nc21 [ralimetinib]
Outline: as §1

[10] = compound: CC(C)(O)CC(=O)NCCn1ccc2ncnc(Nc3ccc(Oc4cccc(C(F)(F)F)c4)c(Cl)c3)c21
Outline: as §1

[11] = compound: CC(C)C1=C2N=C(C=C(N2N=C1)NCC3=CC=CC=C3)NCCCCCCN
Outline: as §1

[12] = compound: CC1=C(C(CC(=O)N1)C2=CC=C(C=C2)C(F)(F)F)C(=O)NC3=C(C=C4C(=C3)C=NN4)F
Outline: as §1

[13] = compound: CC1=C(C2=C(C=C1)C(=O)C3=CC=CC=C3N2CCCN)C
Outline: as §1

[14] = compound: CC1=C(C=C(C=C1)NC(=O)C2=CC(=CC=C2)C(C)(C)C#N)NC3=CC4=C(C=C3)N=CN(C4=O)C
Outline: as §1

[15] = compound: CC1=C(C=C(C=C1)NC(=O)C2=CC(=CC=C2)N(C)C)NC(=O)C3=CC=C(C=C3)O
Outline: as §1

[16] = compound: CC1=CC=C(C=C1)SC2=C3C=C(SC3=CN=C2)C(=O)N
Outline: as §1

Measured: log2 fold change

ATP11B (UniProt Q9Y2G3)
inactive: erlotinib -0.003 | [1] -0.039 | [2] -0.028 | [3] -0.023 | [4] 0.004 | [5] -0.012 | [6] -0.036 | [7] 0.006 | [8] -0.006 | IRAK-1-4 Inhibitor I 0.01 | ibrutinib -0.007 | [9] 0.007 | ralimetinib 0.041 | [10] -0.007 | [11] -0.022 | [12] -0.007 | [13] -0.004 | [14] -0.008 | [15] 0.015 | [16] -0.011

ASF1A (UniProt Q9Y294)
inactive: erlotinib -0.014 | [1] -0.105 | [2] 0.006 | [3] 0.044 | [4] 0.009 | [5] 0.005 | [6] 0.002 | [7] -0.021 | [8] -0.013 | IRAK-1-4 Inhibitor I 0.006 | ibrutinib -0.059 | [9] 0.009 | ralimetinib 0.005 | [10] -0.025 | [11] -0.031 | [12] -0.003 | [13] 0.005 | [14] 0.029 | [15] -0.015 | [16] -0.015

ATP5IF1 (UniProt Q9UII2)
inactive: erlotinib -0.004 | [1] 0.018 | [2] 0.018 | [3] -0.028 | [4] -0.013 | [5] 0 | [6] 0.041 | [7] -0.029 | [8] 0.046 | IRAK-1-4 Inhibitor I 0.005 | ibrutinib 0.059 | [9] -0.017 | ralimetinib -0.082 | [10] -0.05 | [11] 0.007 | [12] -0.024 | [13] 0.001 | [14] -0.019 | [15] -0.015 | [16] -0.023

ATP1B3 (UniProt P54709)
inactive: erlotinib -0.009 | [1] -0.021 | [2] 0.013 | [3] -0.002 | [4] 0.02 | [5] 0.01 | [6] 0.014 | [7] -0.003 | [8] 0.009 | IRAK-1-4 Inhibitor I -0.008 | ibrutinib -0.014 | [9] 0.003 | ralimetinib -0.003 | [10] 0.007 | [11] -0.009 | [12] -0.014 | [13] -0.009 | [14] -0.01 | [15] 0.008 | [16] -0.021

ATG4B (UniProt Q9Y4P1)
inactive: erlotinib 0.012 | [1] 0.002 | [2] -0.022 | [3] -0.024 | [4] 0.028 | [5] -0.019 | [6] -0.007 | [7] 0.008 | [8] -0.004 | IRAK-1-4 Inhibitor I 0.019 | ibrutinib 0.037 | [9] 0.021 | ralimetinib 0.016 | [10] -0.028 | [11] -0.019 | [12] -0.014 | [13] 0.033 | [14] 0.005 | [15] 0.046 | [16] 0.013

ASDURF (UniProt L0R819)
inactive: erlotinib -0.078 | [1] -0.116 | [2] 0.033 | [3] 0.039 | [4] 0.028 | [5] -0.004 | [6] 0.016 | [7] -0.002 | [8] -0.039 | IRAK-1-4 Inhibitor I -0.009 | ibrutinib -0.014 | [9] -0.005 | ralimetinib -0.001 | [10] -0.002 | [11] -0.05 | [12] -0.003 | [13] -0.055 | [14] -0.024 | [15] 0.055 | [16] -0.002

ATP5MD (UniProt Q96IX5)
inactive: erlotinib -0.079 | [1] -0.008 | [2] -0.001 | [3] 0.034 | [4] 0.06 | [5] 0.01 | [6] 0.06 | [7] -0.041 | [8] -0.025 | IRAK-1-4 Inhibitor I -0.032 | ibrutinib 0.024 | [9] 0.033 | ralimetinib -0.001 | [10] 0.062 | [11] -0.024 | [12] 0.001 | [13] -0.053 | [14] 0.016 | [15] 0.015 | [16] -0.005

ATP2C1 isoform 7 (UniProt P98194)
inactive: erlotinib -0.043 | [1] -0.005 | [2] -0.027 | [3] -0.243 | [4] 0.002 | [5] -0.034 | [6] -0.253 | [7] -0.198 | [8] 0.044 | IRAK-1-4 Inhibitor I -0.032 | ibrutinib -0.018 | [9] -0.003 | ralimetinib 0.021 | [10] 0.024 | [11] -0.028 | [12] -0.004 | [13] -0.127 | [14] 0.07 | [15] -0.013 | [16] -0.045

ATP5MG (UniProt O75964)
inactive: erlotinib 0 | [1] 0.028 | [2] 0.007 | [3] 0.023 | [4] 0.015 | [5] 0.013 | [6] -0.004 | [7] 0.014 | [8] 0.051 | IRAK-1-4 Inhibitor I 0.049 | ibrutinib 0.001 | [9] -0.003 | ralimetinib -0.007 | [10] -0.024 | [11] 0.008 | [12] -0.028 | [13] -0.035 | [14] 0.038 | [15] -0.019 | [16] 0.004

ATG3 (UniProt Q9NT62)
inactive: erlotinib -0.013 | [1] -0.014 | [2] 0.008 | [3] 0.01 | [4] -0.009 | [5] 0.016 | [6] 0.008 | [7] -0.007 | [8] -0.031 | IRAK-1-4 Inhibitor I -0.027 | ibrutinib 0.003 | [9] 0.01 | ralimetinib 0.024 | [10] 0.006 | [11] -0.013 | [12] 0.005 | [13] 0.034 | [14] 0.01 | [15] 0.01 | [16] -0.014

ATAD3A (UniProt Q9NVI7)
inactive: erlotinib -0.032 | [1] 0.007 | [2] -0.075 | [3] 0.032 | [4] -0.05 | [5] 0 | [6] 0.066 | [7] 0.03 | [8] 0.089 | IRAK-1-4 Inhibitor I 0.039 | ibrutinib -0.042 | [9] 0.027 | ralimetinib 0.028 | [10] -0.076 | [11] 0.013 | [12] 0.034 | [13] 0.005 | [14] -0.036 | [15] -0.004 | [16] 0.034

ATP6V1D (UniProt Q9Y5K8)
inactive: erlotinib -0.015 | [1] 0.027 | [2] 0.014 | [3] -0.007 | [4] -0.03 | [5] -0.019 | [6] 0.017 | [7] 0.024 | [8] -0.022 | IRAK-1-4 Inhibitor I -0.002 | ibrutinib 0.008 | [9] 0.01 | ralimetinib 0.02 | [10] -0.015 | [11] 0.003 | [12] 0.02 | [13] -0.001 | [14] -0.031 | [15] 0.03 | [16] -0.003

ASCC1 isoform 2 (UniProt Q8N9N2)
inactive: erlotinib 0.005 | [1] -0.042 | [2] -0.007 | [3] 0.025 | [4] -0.011 | [5] -0.012 | [6] -0.012 | [7] -0.061 | [8] 0.009 | IRAK-1-4 Inhibitor I -0.011 | ibrutinib -0.026 | [9] -0.014 | ralimetinib -0.012 | [10] 0.023 | [11] -0.03 | [12] -0.04 | [13] -0.015 | [14] 0.05 | [15] 0.009 | [16] -0.002

AURKA (UniProt O14965)
inactive: erlotinib 0.111 | [1] -0.028 | [2] -0.033 | [3] 0.008 | [4] 0 | [5] -0.039 | [6] 0.359 | [7] 0.483 | [8] -0.004 | IRAK-1-4 Inhibitor I 0.129 | ibrutinib 0.348 | [9] 0.144 | ralimetinib -0.042 | [10] 0.037 | [11] -0.051 | [12] 0.034 | [13] -0.039 | [14] -0.042 | [15] -0.005 | [16] 0.007

ATG5 (UniProt Q9H1Y0)
inactive: erlotinib -0.028 | [1] -0.032 | [2] 0.004 | [3] 0.011 | [4] -0.006 | [5] 0.008 | [6] 0.018 | [7] -0.002 | [8] 0.004 | IRAK-1-4 Inhibitor I -0.005 | ibrutinib 0.049 | [9] 0 | ralimetinib 0.022 | [10] 0.008 | [11] -0.009 | [12] 0.028 | [13] 0.007 | [14] 0.008 | [15] -0.008 | [16] -0.012

Copied from the results shown (4 entries):
ATG3 (UniProt Q9NT62)
inactive: erlotinib -0.013 | [1] -0.014 | [2] 0.008 | [3] 0.01 | [4] -0.009 | [5] 0.016 | [6] 0.008 | [7] -0.007 | [8] -0.031 | IRAK-1-4 Inhibitor I -0.027 | ibrutinib 0.003 | [9] 0.01 | ralimetinib 0.024 | [10] 0.006 | [11] -0.013 | [12] 0.005 | [13] 0.034 | [14] 0.01 | [15] 0.01 | [16] -0.014

ATAD3A (UniProt Q9NVI7)
inactive: erlotinib -0.032 | [1] 0.007 | [2] -0.075 | [3] 0.032 | [4] -0.05 | [5] 0 | [6] 0.066 | [7] 0.03 | [8] 0.089 | IRAK-1-4 Inhibitor I 0.039 | ibrutinib -0.042 | [9] 0.027 | ralimetinib 0.028 | [10] -0.076 | [11] 0.013 | [12] 0.034 | [13] 0.005 | [14] -0.036 | [15] -0.004 | [16] 0.034

ATP6V1D (UniProt Q9Y5K8)
inactive: erlotinib -0.015 | [1] 0.027 | [2] 0.014 | [3] -0.007 | [4] -0.03 | [5] -0.019 | [6] 0.017 | [7] 0.024 | [8] -0.022 | IRAK-1-4 Inhibitor I -0.002 | ibrutinib 0.008 | [9] 0.01 | ralimetinib 0.02 | [10] -0.015 | [11] 0.003 | [12] 0.02 | [13] -0.001 | [14] -0.031 | [15] 0.03 | [16] -0.003

ASCC1 isoform 2 (UniProt Q8N9N2)
inactive: erlotinib 0.005 | [1] -0.042 | [2] -0.007 | [3] 0.025 | [4] -0.011 | [5] -0.012 | [6] -0.012 | [7] -0.061 | [8] 0.009 | IRAK-1-4 Inhibitor I -0.011 | ibrutinib -0.026 | [9] -0.014 | ralimetinib -0.012 | [10] 0.023 | [11] -0.03 | [12] -0.04 | [13] -0.015 | [14] 0.05 | [15] 0.009 | [16] -0.002

Additional entries.

ATP2B1 isoform 1 (UniProt P20020)
inactive: erlotinib -0.026 | [1] -0.015 | [2] -0.009 | [3] -0.031 | [4] -0.009 | [5] -0.019 | [6] 0.026 | [7] -0.04 | [8] 0.024 | IRAK-1-4 Inhibitor I 0.016 | ibrutinib -0.007 | [9] 0.021 | ralimetinib 0.017 | [10] -0.032 | [11] 0.003 | [12] 0 | [13] 0.01 | [14] -0.018 | [15] 0.01 | [16] 0.004
